Results from publication PMC8264591.
No constants are given. Whether binding was seen depends on the method and setting. Binding seen in cells or lysates may run through a third protein. Some binding calls cover weakened binding; strength is not graded here.

Protein sequences, listed by entry. Tags and fused reporters are not part of them.
UniProt O95863: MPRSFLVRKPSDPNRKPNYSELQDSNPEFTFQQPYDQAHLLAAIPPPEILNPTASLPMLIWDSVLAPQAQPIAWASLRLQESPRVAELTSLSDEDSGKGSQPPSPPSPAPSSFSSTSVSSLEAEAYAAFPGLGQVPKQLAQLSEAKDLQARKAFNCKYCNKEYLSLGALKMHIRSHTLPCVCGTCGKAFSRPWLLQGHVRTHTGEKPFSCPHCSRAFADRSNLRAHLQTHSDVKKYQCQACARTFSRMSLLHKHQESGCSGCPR

T1: F-box/LRR-repeat protein 7 (human (endogenous in BxPC-3)) (UniProt Q9UJT9)
T1 sequence: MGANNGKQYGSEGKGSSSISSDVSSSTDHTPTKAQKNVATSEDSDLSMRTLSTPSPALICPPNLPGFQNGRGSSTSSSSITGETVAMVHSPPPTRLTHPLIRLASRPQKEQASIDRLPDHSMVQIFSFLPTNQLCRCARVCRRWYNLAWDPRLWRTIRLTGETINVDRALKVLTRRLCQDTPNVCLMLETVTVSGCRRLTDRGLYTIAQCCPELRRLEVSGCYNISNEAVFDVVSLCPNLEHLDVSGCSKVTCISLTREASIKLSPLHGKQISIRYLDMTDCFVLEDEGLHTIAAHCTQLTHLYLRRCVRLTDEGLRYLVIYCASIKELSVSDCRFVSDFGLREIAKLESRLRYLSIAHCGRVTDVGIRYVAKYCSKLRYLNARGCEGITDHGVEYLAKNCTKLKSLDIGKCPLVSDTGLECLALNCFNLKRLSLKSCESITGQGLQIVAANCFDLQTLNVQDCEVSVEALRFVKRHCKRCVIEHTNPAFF

B1: F-box/LRR-repeat protein 7 (protein, UniProt Q9UJT9 1-491)
chain: MGANNGKQYGSEGKGSSSISSDVSSSTDHTPTKAQKNVATSEDSDLSMRTLSTPSPALICPPNLPGFQNGRGSSTSSSSITGETVAMVHSPPPTRLTHPLIRLASRPQKEQASIDRLPDHSMVQIFSFLPTNQLCRCARVCRRWYNLAWDPRLWRTIRLTGETINVDRALKVLTRRLCQDTPNVCLMLETVTVSGCRRLTDRGLYTIAQCCPELRRLEVSGCYNISNEAVFDVVSLCPNLEHLDVSGCSKVTCISLTREASIKLSPLHGKQISIRYLDMTDCFVLEDEGLHTIAAHCTQLTHLYLRRCVRLTDEGLRYLVIYCASIKELSVSDCRFVSDFGLREIAKLESRLRYLSIAHCGRVTDVGIRYVAKYCSKLRYLNARGCEGITDHGVEYLAKNCTKLKSLDIGKCPLVSDTGLECLALNCFNLKRLSLKSCESITGQGLQIVAANCFDLQTLNVQDCEVSVEALRFVKRHCKRCVIEHTNPAFF

Assays:
[1] = molecular target: T1, F-box/LRR-repeat protein 7 (human (endogenous in BxPC-3)); assay: co-IP; reciprocal co-IP of endogenous proteins from BxPC-3 cell lysate (RIPA buffer with protease inhibitor cocktail); pre-cleared with protein A + G agarose beads; 20 ug protein incubated with rabbit IgG, anti-Snail or anti-FBXL7 antibody; Western blot
[2] = molecular target: Snail1 (human (endogenous in BxPC-3)) (UniProt O95863); assay: as above

| Molecule | binding [1] | binding [2] |
| --- | --- | --- |
| Snail1 (from UniProt O95863 1-264) | binds |  |
| B1 |  | binds |
